Binding data for one substance are collected here from paper PMC9472757.

Amino acid sequences for entries named in this document (tags omitted).
UniProt O95071: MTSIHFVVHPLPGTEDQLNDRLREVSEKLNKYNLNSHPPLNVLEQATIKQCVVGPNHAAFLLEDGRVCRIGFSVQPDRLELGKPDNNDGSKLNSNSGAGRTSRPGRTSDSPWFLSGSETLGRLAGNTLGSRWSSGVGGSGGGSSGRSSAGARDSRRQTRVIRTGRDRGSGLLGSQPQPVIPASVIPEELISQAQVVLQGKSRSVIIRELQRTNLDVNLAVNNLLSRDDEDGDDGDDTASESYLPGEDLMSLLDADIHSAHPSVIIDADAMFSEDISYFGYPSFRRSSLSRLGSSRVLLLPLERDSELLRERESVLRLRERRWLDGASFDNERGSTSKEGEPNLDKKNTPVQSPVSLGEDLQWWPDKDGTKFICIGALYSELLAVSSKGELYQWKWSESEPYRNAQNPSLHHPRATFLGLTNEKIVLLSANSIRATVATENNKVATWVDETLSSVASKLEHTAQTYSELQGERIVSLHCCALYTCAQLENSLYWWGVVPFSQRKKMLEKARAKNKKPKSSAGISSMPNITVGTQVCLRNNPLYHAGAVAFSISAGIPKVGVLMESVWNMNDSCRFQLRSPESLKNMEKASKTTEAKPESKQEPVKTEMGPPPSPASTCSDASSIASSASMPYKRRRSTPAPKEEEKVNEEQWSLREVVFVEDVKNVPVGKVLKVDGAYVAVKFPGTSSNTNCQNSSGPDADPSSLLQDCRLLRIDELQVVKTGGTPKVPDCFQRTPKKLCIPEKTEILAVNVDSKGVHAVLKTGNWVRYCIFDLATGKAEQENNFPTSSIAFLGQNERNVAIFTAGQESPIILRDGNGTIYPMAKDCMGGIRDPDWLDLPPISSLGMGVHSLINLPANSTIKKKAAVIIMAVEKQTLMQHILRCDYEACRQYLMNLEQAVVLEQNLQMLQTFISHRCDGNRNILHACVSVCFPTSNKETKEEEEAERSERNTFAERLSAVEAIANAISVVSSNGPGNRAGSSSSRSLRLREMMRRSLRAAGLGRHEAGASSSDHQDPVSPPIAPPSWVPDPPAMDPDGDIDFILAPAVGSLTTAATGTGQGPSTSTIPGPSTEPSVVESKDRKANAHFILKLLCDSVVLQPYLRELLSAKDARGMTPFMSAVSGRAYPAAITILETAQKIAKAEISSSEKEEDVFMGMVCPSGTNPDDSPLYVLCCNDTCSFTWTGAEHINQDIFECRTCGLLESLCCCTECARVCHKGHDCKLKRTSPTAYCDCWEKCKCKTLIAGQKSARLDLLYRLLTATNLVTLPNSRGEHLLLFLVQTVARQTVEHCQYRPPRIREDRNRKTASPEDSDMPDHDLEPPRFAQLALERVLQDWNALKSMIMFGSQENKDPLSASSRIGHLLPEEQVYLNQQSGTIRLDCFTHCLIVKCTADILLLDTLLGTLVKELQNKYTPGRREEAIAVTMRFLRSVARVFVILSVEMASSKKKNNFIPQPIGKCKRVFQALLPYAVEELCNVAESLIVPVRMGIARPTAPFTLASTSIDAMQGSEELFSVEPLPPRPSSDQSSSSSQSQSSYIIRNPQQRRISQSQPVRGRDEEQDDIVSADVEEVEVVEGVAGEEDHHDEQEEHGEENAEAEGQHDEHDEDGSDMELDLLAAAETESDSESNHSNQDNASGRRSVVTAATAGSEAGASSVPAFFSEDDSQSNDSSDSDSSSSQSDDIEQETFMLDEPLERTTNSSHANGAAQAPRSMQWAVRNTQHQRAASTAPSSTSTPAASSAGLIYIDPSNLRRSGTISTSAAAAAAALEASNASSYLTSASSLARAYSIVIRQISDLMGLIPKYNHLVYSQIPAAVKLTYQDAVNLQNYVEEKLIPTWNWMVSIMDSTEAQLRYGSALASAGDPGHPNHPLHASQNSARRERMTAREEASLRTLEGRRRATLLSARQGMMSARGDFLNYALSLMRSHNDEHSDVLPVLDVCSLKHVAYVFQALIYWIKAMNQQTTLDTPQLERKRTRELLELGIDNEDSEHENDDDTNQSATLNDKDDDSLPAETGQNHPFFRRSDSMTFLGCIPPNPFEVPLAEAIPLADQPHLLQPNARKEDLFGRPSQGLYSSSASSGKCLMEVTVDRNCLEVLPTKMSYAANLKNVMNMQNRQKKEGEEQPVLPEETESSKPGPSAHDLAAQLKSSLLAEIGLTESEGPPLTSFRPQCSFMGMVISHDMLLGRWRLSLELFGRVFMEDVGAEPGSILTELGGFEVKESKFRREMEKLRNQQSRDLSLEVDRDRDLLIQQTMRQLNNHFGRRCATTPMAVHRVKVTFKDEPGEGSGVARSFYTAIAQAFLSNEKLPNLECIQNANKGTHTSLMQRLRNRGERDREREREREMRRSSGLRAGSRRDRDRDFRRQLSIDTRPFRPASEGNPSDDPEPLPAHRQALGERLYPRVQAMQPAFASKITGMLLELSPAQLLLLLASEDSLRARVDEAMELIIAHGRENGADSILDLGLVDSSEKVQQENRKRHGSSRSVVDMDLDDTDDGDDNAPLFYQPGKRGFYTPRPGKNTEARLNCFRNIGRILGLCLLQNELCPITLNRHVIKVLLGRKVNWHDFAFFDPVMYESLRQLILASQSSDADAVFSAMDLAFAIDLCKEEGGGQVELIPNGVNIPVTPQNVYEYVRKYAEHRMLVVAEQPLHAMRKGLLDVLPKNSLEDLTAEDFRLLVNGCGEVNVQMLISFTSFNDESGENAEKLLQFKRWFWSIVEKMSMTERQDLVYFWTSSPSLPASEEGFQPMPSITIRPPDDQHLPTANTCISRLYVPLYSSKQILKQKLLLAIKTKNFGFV

The assay deals with T1, Flag-ORF4b (MERS-CoV ORF4b protein, Flag-tagged) (MERS-CoV) (UniProt K9N643).
T1 sequence: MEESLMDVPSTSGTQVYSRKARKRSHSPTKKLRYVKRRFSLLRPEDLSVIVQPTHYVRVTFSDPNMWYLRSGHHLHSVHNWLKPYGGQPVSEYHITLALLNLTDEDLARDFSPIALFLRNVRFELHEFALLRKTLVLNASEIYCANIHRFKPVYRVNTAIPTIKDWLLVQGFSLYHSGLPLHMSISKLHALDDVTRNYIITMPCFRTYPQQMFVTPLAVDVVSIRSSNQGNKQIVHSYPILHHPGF
In words: affinity purification with mass spectrometry.

No constants are given. Whether binding was seen depends on the method and setting. In cells and extracts the contact can be indirect. Here binding means that the protein was enriched with, or labelled near, the bait; the list need not be complete. Sequences can lack the tags named with a protein.

For “UBR5 (ubiquitin protein ligase E3 component N-recognin 5), endogenous (from UniProt O95071 1-2799) (enzyme)”, the binding result is listed as “binds”.
